Source: paper PMC10959363
Results are given in words; binding and its absence hold for the method and conditions named. In cells and extracts the contact can be indirect. For part of these data: Binding can be weak; no strength is given. For part of these data: Sequences can lack the tags named with a protein.

B1: SERPINE1 mRNA binding protein 1, HA-tagged (SERBP1-HA) (protein, UniProt Q6AXS5 1-407)
chain: MPGHLQEGFGCVVTNRFDQLFDDESDPFEVLKAAENKKKEAGGGGVGGPGAKSAAQAAAQTNSNAAGKQLRKESQKDRKNPLPPSVGVADKKEETQPPVALKKEGIRRVGRRPDQQLQGDGKIIDRRPERRPPRERRFEKPLEEKGEGGEFSVDRPIIERPIRGRGGLGRGRGGRGRGMGRGDGFDSRGKREFDRHSGSDRSSFSHYSGLKHEDKRGGSGSHNWGTVKDELTESPKYIQKQISYNCSDLEQSNVTEETPEGEEHPVADTENKENEVEEVKEEGPKEMTLDEWKAIQNKDRAKVEFNIRKPNEGADGQWKKGFVLHKSKSEEAHAEDSVMDHHFRKPANDITSQLEINFGDLGRPGRGGRGGRGGRGRGGRPNRGSRTDKSSASAPDVDDPEAFPALA
B2: SERPINE1 mRNA binding protein 1 (SERBP1), endogenous (protein, UniProt Q6AXS5 1-407)
chain: B1 chain

Experiments:
[1] = target: KSHV vFLIP, Flag-tagged (vFLIP-Flag) (Kaposi's sarcoma-associated herpesvirus (KSHV)); assay: co-IP; KMM cells lentivirally transduced with SERBP1-HA and the tagged partner; lysate immunoprecipitated by the partner's tag (anti-Myc or anti-Flag antibody) on magnetic beads at 4°C overnight, washed with TBST, Western blotting
[2] = target: Sirtuin 3, Myc-tagged (SIRT3-Myc); assay: as above
[3] = target: Sirtuin 3 (SIRT3), endogenous (rat (endogenous in MM and KMM cells)); assay: co-IP; endogenous proteins in MM and KMM cell lysates, and in KMM cells transduced with vIL-6-Flag or its control pHAGE; immunoprecipitated with anti-SIRT3 antibody

Binder	binding [1]	binding [2]	binding [3]
B1	no binding	binds	–
B2	–	–	binds
